In patent US20070148159A1, “Use of crotoxin as an analgesic - CIP” (priority 2005, published 2007):

Legend:
mice [1] = format: in vivo, mouse; conditions: Atropine 0.25-1 mg/kg; Naloxone 1.25-5 mg/kg
mice [2] = format: in vivo, mouse; conditions: Atropine 2.5-10 mg/kg

## CN1[C@@H]2CC[C@H]1C[C@@H](OC(=O)C(CO)c1ccccc1)C2 (some centres unmarked) [Atropine]
Mice [1]
  effect on Crotoxin-induced analgesia, hotplate test: no significant effect
Mice [2]
  effect on Crotoxin-induced analgesia, acetic acid-writhing test: no significant effect
